{
  "source": "PubChem BioAssay AID2417",
  "about": "(National Center for Advancing Translational Sciences (NCATS), 2010)",
  "note": "In all, about 140,000 compounds went through this assay and about 4,300 (3.1%) were called active. The shares of active, inactive and inconclusive entries below differ from those in the screen.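 How the source made its calls: active means readout at or below -70, meaning at least 70% loss of cells showing the perinucleolar compartment, a nuclear body marking cancer cells; inconclusive means readout between -30 and a set limit; inactive means the rest.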",
  "data": [
    {"assay": "High Content Assay for Compounds that inhibit the Assembly of the Perinucleolar Compartment;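 further: plate controls were DMSO wells for no effect and camptothecin positive control wells for full effect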", "details": "PC3M PTB-GFP, PNC prevalence imaging, 16 h; at 10 µM; hits give low values", "text": "High Content Assay for Compounds that inhibit the Assembly of the Perinucleolar Compartment NIH Chemical Genomics Center [NCGC] NIH Molecular Libraries Probe Centers Network [MLPCN] MLPCN Grant: MH082371-01A2 Assay Submitter (PI): Sui Huang, Northwestern University, Feinberg School of Medicine, Cell and Molecular Biology, Chicago, Illinois. The perinucleolar compartment (PNC) is a non-membrane-bound nuclear subdomain that is associated with but structurally distinct from the nucleolus. The PNC is a heritable trait, in which the number of PNCs per cell in daughter cells often mimics that of their mother cells. The PNC is heterogeneous in shape, is stable through interphase, disassembles during mitosis, and reassembles in early G1. The PNC is concentrated with newly synthesized RNA polymerase III (pol III) RNAs (MRP RNA, RNAse P H1 RNA, hY RNAs[hY1, 2, 5], Alu RNA, and SRP [7SL] RNA) and RNA binding proteins (nucleolin, PTB, CUG-BP, KSRP, Raver1, Raver2, and Rod). […] Extensive in vitro studies have shown that the PNC is unique to tumor cells and preferentially forms in tumor cells derived from solid tissues. […]\nPNC High Content Imaging Assay Procedure: 1. […] PNC prevalence was determined using the Multitarget analysis module from InCell Workstation software (V3.5 ) and analysis was run on a quad core workstation using the Incell Developer Toolbox (V1.7). […]", "values": [
      {"smiles": "O=C(Nc1ccc(-c2nc3ccccc3[nH]2)cc1)c1ccccc1NS(=O)(=O)c1ccc(F)cc1", "activity change (PNC), negative = inhibition": "inconclusive: -49.5%"}
    ]}
  ]
}
